Measurements from article PMC6296734, “The CbrB Regulon: Promoter dissection reveals novel insights into the CbrAB expression network in Pseudomonas putida”.
Results are given in words; binding and its absence hold for the method and conditions named.

Key:
[1] = target: CbrB (Pseudomonas putida); assay: SEC; Superdex 200 increase 10/300GL, 500 μl of 2 μM CbrB, room temperature, CbrB binding buffer (50 mM Tris HCl pH 7.4, 50 mM KCl, 0.1 mM DTT, 0.1 mM EDTA, 10 mM MgCl2), 0.5 ml/min; both purified
[2] = target: CbrB (Pseudomonas putida); assay: SEC; as a2, 2 μM CbrB treated with 80 mM acetyl phosphate before loading; both purified
[3] = target: CbrB (Pseudomonas putida); assay: SEC; as a2, 2 μM CbrB incubated with 4.5 nM DNA fragment containing the crcZ promoter region (subsites F1, R1, R2) before loading; both purified
[4] = target: CbrB (Pseudomonas putida); assay: AUC; sedimentation velocity, 20 °C, 45,000 rpm, CbrB binding buffer (50 mM Tris HCl pH 7.4, 50 mM KCl, DTT, 0.1 mM EDTA, 10 mM MgCl2), protein concentration printed as 60 μm; c(s) analysis with sedfit; both purified

B1: CbrB (protein, UniProt A0ABM7EKZ2 1-480)
chain: MPHILIVEDETIIRSALRRLLERNQYQVSEAGSVQEAQERFSIATFDLIVSDLRLPGAPGTELIKLGQGTPVLIMTSYASLRSAVDSMKMGAVDYIAKPFDHDEMLQAVARILRDRQNAPAAASAAEPRATNGKAAPADKGSAAAANGEIGIIGSCPPMQDMYSKIRKVAPTDSNVLIQGESGTGKELVARALHNLSRRAKAPMISVNCAAIPETLIDSELFGHEKGAFTGASAGRAGLVEAADGGTLFLDEIGELPLEAQARLLRVLQEGEIRRVGSVQSQKVDVRLIAATHRDLKNLAKAGQFREDLYYRLHVIALKLPALRERGSDVNEIASAFLARQSARIGRDDLHFSAEAEQAIRHYSWPGNVRELENAVERAVILSESAEISAELLGIDIELSDLEEDEILNNALVVASAASASHEPTEDLSLEDYFQHFVLEHQDHMTETELARKLGVSRKCLWERRQRLGIPRRKSNATSE
Which results are given for B1?
binding [1]: no binding (tested: 2 μM); binding [2]: no binding (tested: 2 μM); binding [3]: no binding (tested: 2 μM); binding [4]: no binding (tested: 60 μm)
